We go through 25 compounds from PubChem BioAssay AID296 (DTP/NCI, 2004).

The list shows only some results of the screen, not a fair sample: it gathers tests that were run many times, whatever their T/C, doses with no T/C, and many T/C values between a quarter and a half above the control. Further doses and runs are listed elsewhere. T/C is the treated group as % of the vehicle group. Schedules are NCI's codes, read here as Q, the interval in days (D) or hours (H), X, the number of doses. Some values lie below zero, which means that the treated tumours became smaller. Some T/C values are followed by the survivors on the day toxicity was checked, most often the fifth; without a count, all were alive then. Some entries hold several experiments; the results are listed from low to high. Some doses have a count of surviving animals in place of a T/C: the source holds a T/C of zero for them, seemingly a mark for toxic or unscored doses. Counts of survivors are from the toxicity check (mostly the fifth day) where no day follows; animals may have died later.

This experiment relates to MX-1 breast xenograft, nude mice, tumor weight T/C. Description: NCI In Vivo Anticancer Drug Screen. Data for tumor model Human Mammary Carcinoma MX-1 Xenograft (intrarenal inoculation) in NU/NU Swiss (nude) mice. The conditions noted are these: T/C endpoint: mean tumor weight change, higher T/C = larger tumour; for T/C: evaluated on day 11. The procedure, abridged: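 Compound dosed to mice with transplantable tumor; vehicle group as control. Endpoint survival or tumour size, reported as T/C.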
In general terms: In xenograft studies the graft and the host belong to different species.

The mark [1] stands for this setting: dose: 200.0 mg/kg/injection, schedule: Q01DX010 (sc), vehicle: saline.
Where [2] appears, read: dose: 50.0 mg/kg/injection, schedule: Q01DX010 (sc), vehicle: saline.
[3] abbreviates: dose: 100.0 mg/kg/injection, schedule: Q01DX010 (sc), vehicle: water.
Where [4] appears, read: dose: 200.0 mg/kg/injection, schedule: Q01DX010 (sc), vehicle: water.
Where [5] appears, read: dose: 400.0 mg/kg/injection, schedule: Q01DX010 (sc), vehicle: water.

In the case of `OCC1OC(n2cnc3c(=S)nc[nH]c32)C(O)C1O` (stereo not drawn), the survivor count is 0 of 3 on day 11 under setting [1]; 3 of 6 on day 11 (dose: 200.0 mg/kg/injection, schedule: Q01DX010 (sc), vehicle: suspension in saline); 1 of 6 on day 11 (dose: 400.0 mg/kg/injection, schedule: Q01DX010 (sc), vehicle: suspension in saline).

Consider `COc1cccc2c1C(=O)c1c(O)c3c(c(O)c1C2=O)C[C@@](O)(C(=O)CO)C[C@@H]3OC1CC(N(C)C)C(O)C(C)O1` (stereo partly drawn), for which the survivor count reads like this: (dose: 12.0 mg/kg/injection, schedule: Q01DX010 (sc), vehicle: water) 1 of 3 on day 11; (dose: 24.0 mg/kg/injection, schedule: Q01DX010 (sc), vehicle: water) 0 of 3 on day 11.

`CN(C)C=O`: the T/C reads like this: (dose: 800.0 mg/kg/injection, schedule: Q01DX010 (sc), vehicle: saline) 15, 21, 27 % of control; (dose: 1600.0 mg/kg/injection, schedule: Q01DX010 (sc), vehicle: saline) -80, 3, 25 [2 of 2 alive on day 11], 34 % of control [2 of 2 alive on day 11]. Further, the survivor count by setting is: (dose: 6400.0 mg/kg/injection, schedule: Q01DX010 (sc), vehicle: saline) 0 of 3 on day 11; (dose: 6400.0 mg/kg/injection, schedule: Q01DX010 (sc), vehicle: suspension in saline) 0 of 3 on day 11.

For `C(COCCOCC1CO1)OCCOCC1CO1` (stereo not drawn), the survivor count runs as follows: (dose: 1200.0 mg/kg/injection, schedule: Q04DX003 (sc), vehicle: saline) 2 of 6 on day 11; (dose: 2400.0 mg/kg/injection, schedule: Q04DX003 (sc), vehicle: saline) 0 of 6 on day 11.

Regarding `N#Cc1cn(C2OC(CO)C(O)C2O)c2ncnc(N)c12` (stereo not drawn), for the setting “dose: 0.25 mg/kg/injection, schedule: Q01DX010 (sc), vehicle: saline”, the T/C was 129 % of control. The survivor count is on record as 0 of 3 on day 11 (dose: 1.0 mg/kg/injection, schedule: Q01DX010 (sc), vehicle: saline) and 0 of 3 on day 11 (dose: 2.0 mg/kg/injection, schedule: Q01DX010 (sc), vehicle: saline).

`NC(CNC(=O)CBr)C(=O)O` (stereo not drawn): the survivor count reads like this: (dose: 200.0 mg/kg/injection, schedule: Q04DX003 (sc), vehicle: water) 1 of 6 on day 11; (dose: 300.0 mg/kg/injection, schedule: Q04DX003 (sc), vehicle: water) 0 of 6 on day 11.

Regarding `CCCC(=O)Oc1ccc(/C=N/NC(N)=S)nc1`, the survivor count (dose: 400.0 mg/kg/injection, schedule: Q01DX010 (sc), vehicle: saline with Tween-80) is 0 of 3 on day 11.

With `CC[C@@]1(O)C[C@H](OC2CC(N(C)C)C(OC3CC(O)C(OC4CCC(=O)C(C)O4)C(C)O3)C(C)O2)c2c(cc3c(c2O)C(=O)c2c(O)cccc2C3=O)[C@H]1C(=O)OC` (stereo partly drawn), the T/C (dose: 0.5 mg/kg/injection, schedule: Q01DX010 (sc), vehicle: water) is 128 % of control and the T/C (dose: 1.0 mg/kg/injection, schedule: Q01DX010 (sc), vehicle: water) was 140 % of control. Also, the survivor count by setting is: (dose: 4.0 mg/kg/injection, schedule: Q01DX010 (ip), vehicle: water) 0 of 3 on day 11; (dose: 8.0 mg/kg/injection, schedule: Q01DX010 (ip), vehicle: water) 0 of 3 on day 11.

Consider `NC(=O)c1ncn2c(=O)n(CCCl)nnc12`, for which the survivor count by setting is: (dose: 100.0 mg/kg/injection, schedule: Q04DX003 (sc), vehicle: suspension in saline) 2 of 6 on day 11; (dose: 200.0 mg/kg/injection, schedule: Q04DX003 (sc), vehicle: suspension in saline) 0 of 6 on day 11.

With `CS(=O)(=O)OCCN(CCOS(C)(=O)=O)c1ccc(C=O)cc1`, the T/C (dose: 6.25 mg/kg/injection, schedule: Q01DX010 (sc), vehicle: saline) was 127 % of control. Moreover, the survivor count by setting is: under setting [2], 0 of 3 on day 11 and 1 of 3 on day 11; (dose: 100.0 mg/kg/injection, schedule: Q01DX010 (sc), vehicle: saline) 0 of 3 on day 11.

On to `O=C(O)C1CSCN1` (stereo not drawn), for which the T/C under setting [3] was 142 % of control. In addition, the survivor count is 1 of 3 on day 11 under setting [4] and 0 of 3 on day 11 under setting [5].

Turning to `COc1cccc2c1C(=O)c1c(O)c3c(c(O)c1C2=O)C[C@@](O)(C(=O)COC(=O)c1cccnc1)C[C@@H]3OC1CC(N)C(O)C(C)O1` (stereo partly drawn), the survivor count is, setting by setting: (dose: 24.0 mg/kg/injection, schedule: Q04DX003 (sc), vehicle: saline) 1 of 3 on day 11; (dose: 48.0 mg/kg/injection, schedule: Q04DX003 (sc), vehicle: saline) 0 of 3 on day 11.

Regarding `Oc1cc2c3c(c1)c1cc4c(cc1c[n+]3CC2)OCO4`, the survivor count (dose: 800.0 mg/kg/injection, schedule: Q04DX003 (sc), vehicle: water) is 2 of 5 on day 11.

`CCCCCCCCCCCCCCCCCC(=O)Nc1ccn(C2OC(CO)C(O)C2O)c(=O)n1` (stereo not drawn): the survivor count (dose: 1200.0 mg/kg/injection, schedule: Q04DX003 (sc), vehicle: saline with Tween-80) is 2 of 5 on day 11.

Regarding `COC1C(/C=C/C(C)=O)OC2OC(C)(C)OC21` (stereo not drawn), the T/C (dose: 600.0 mg/kg/injection, schedule: Q04DX003 (sc), vehicle: suspension in saline) was 133 % of control [5 of 6 alive on day 11]. Moreover, for the setting “dose: 2400.0 mg/kg/injection, schedule: Q04DX003 (sc), vehicle: suspension in saline”, the survivor count is given as 0 of 3 on day 11.

Regarding `[N-]=[N+]=CC(=O)CCC(=O)C=[N+]=[N-]`, the survivor count was 1 of 3 on day 11 (dose: 6.0 mg/kg/injection, schedule: Q01DX010 (sc), vehicle: DMSO) and 0 of 3 on day 11 (dose: 12.0 mg/kg/injection, schedule: Q01DX010 (sc), vehicle: DMSO).

For the compound `OCC1OC(n2cnc3c2NC=NC[C@H]3O)CC1O` (stereo partly drawn), the survivor count (dose: 4.0 mg/kg/injection, schedule: Q01DX010 (sc), vehicle: water) is on record as 1 of 3 on day 11.

For `C[N+](C)(C)c1ncnc2nc[nH]c12`, the survivor count is, setting by setting: under setting [1], 1 of 3 on day 11; (dose: 400.0 mg/kg/injection, schedule: Q01DX010 (sc), vehicle: saline) 0 of 3 on day 11.

`ClCCCN1CCN(CCCCl)CC1`: the survivor count by setting is: (dose: 300.0 mg/kg/injection, schedule: Q04DX003 (sc), vehicle: saline + alcohol) 2 of 6 on day 11; (dose: 600.0 mg/kg/injection, schedule: Q04DX003 (sc), vehicle: saline + alcohol) 0 of 6 on day 11.

With `CCC[CH2][Sn]1([CH2]CCC)[O]C2C(CO)OC(n3ccc(N)nc3=O)C2[O]1` (stereo not drawn), the survivor count is recorded as 1 of 6 on day 11 (dose: 48.0 mg/kg/injection, schedule: Q04DX003 (sc), vehicle: Klucel (hydroxypropylcellulose) (HPC)) and 2 of 6 on day 11 (dose: 96.0 mg/kg/injection, schedule: Q04DX003 (sc), vehicle: Klucel (hydroxypropylcellulose) (HPC)).

As for `O=Cc1ccc(C=O)c(Cl)c1`, the T/C was 127 % of control (dose: 300.0 mg/kg/injection, schedule: Q04DX003 (sc), vehicle: Klucel (hydroxypropylcellulose) (HPC)) and 127 % of control (dose: 1200.0 mg/kg/injection, schedule: Q04DX003 (sc), vehicle: Klucel (hydroxypropylcellulose) (HPC)).

`O=C(O[Si](Cc1ccccc1)(Cc1ccccc1)Cc1ccccc1)N(CCCl)CCCl`: the survivor count is 2 of 6 on day 11 (dose: 400.0 mg/kg/injection, schedule: Q04DX003 (sc), vehicle: saline with Tween-80) and 0 of 6 on day 11 (dose: 800.0 mg/kg/injection, schedule: Q04DX003 (sc), vehicle: saline with Tween-80).

Take `NC(=S)N/N=C/c1ccc(OC(=O)COc2ccc(Cl)cc2)cn1`: the survivor count (dose: 2400.0 mg/kg/injection, schedule: Q04DX003 (sc), vehicle: saline with Tween-80) was 1 of 6 on day 11.

For `Cn1cnc([N+](=O)[O-])c1[Se]c1nc(N)nc2nc[nH]c12`, the survivor count is 0 of 3 on day 11 under setting [3], 0 of 3 on day 11 under setting [4] and 0 of 3 on day 11 under setting [5].

For `CN(C)C(=O)c1cccc(COc2ccc(N3C(N)=NC(N)=NC3(C)C)cc2Cl)c1`, the survivor count under setting [2] is reported as 1 of 2 on day 11.
